Experiment [1] deals with T1, full-length human MICB (allele 0101) expressed on TRAMP-C2 cells (human) (UniProt Q29980).
T1 sequence: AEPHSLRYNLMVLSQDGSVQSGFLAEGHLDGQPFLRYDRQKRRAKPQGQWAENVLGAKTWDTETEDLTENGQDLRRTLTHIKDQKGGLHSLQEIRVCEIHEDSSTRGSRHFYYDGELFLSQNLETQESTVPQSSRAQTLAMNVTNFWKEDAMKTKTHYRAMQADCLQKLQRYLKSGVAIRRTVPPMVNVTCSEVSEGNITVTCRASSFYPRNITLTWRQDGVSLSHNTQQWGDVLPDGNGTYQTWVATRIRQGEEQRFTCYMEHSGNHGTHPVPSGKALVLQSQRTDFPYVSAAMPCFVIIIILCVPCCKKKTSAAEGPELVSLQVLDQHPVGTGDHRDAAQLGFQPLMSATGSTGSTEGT
Nature of the experiment: flow cytometry (MFI) on TC2-MICB cells. Background: In flow cytometry, cells or beads pass a laser one at a time.

Experiment [2] has as its target T1, full-length human MICB (allele 0101) expressed on TRAMP-C2 cells (human). As to the kind of experiment: flow cytometry on TC2-MICB cells, 10 µg/ml smNKG2D-Fc, PE anti-human IgG.
The target of experiment [3] is T2, mouse NKG2D receptor on NK cells of SCID mice (mouse) (UniProt O54709).
T2 sequence (looked up): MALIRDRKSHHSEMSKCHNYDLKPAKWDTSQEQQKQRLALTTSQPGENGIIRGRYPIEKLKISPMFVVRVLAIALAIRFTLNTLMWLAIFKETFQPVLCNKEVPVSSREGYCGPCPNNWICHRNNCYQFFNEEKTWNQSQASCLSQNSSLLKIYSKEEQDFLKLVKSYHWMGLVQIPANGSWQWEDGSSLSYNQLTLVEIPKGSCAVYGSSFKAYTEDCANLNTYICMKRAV
As to the kind of experiment: ex vivo competitive binding assay on splenic NK cells of tumor-bearing mice; competitor rsMICB-FLAG.

In experiment [4] the target is T2, mouse NKG2D receptor on NK cells of SCID mice (mouse). Nature of the experiment: ex vivo competitive binding assay, NK cells of mice bearing TC2-MICB tumors; competitor rsMICB-FLAG.
In experiment [5] the target is T3, ERp5 (protein disulphide isomerase, also called P5) co-precipitated from TRAMP-C2 cells (UniProt Q922R8).
T3 sequence (looked up): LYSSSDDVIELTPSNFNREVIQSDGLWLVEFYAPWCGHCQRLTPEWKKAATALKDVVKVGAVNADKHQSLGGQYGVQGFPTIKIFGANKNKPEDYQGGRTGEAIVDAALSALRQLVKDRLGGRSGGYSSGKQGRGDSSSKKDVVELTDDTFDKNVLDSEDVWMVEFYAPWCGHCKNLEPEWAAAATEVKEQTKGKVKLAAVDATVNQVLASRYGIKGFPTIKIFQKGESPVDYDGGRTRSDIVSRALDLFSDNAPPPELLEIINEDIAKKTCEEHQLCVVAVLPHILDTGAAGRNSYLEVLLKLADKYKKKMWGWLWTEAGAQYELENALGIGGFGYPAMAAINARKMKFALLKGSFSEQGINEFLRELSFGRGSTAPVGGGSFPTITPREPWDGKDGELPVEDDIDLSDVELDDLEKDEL
As to the kind of experiment: co-immunoprecipitation with mAb 6D4.6 from surface-biotinylated TRAMP-C2 cells, blot with anti-ERp5 ab11432.

No constants are given. Whether binding was seen depends on the method and setting. For some assays here: In cells and extracts the contact can be indirect. Some entries that bind do so weakly or less than the wild type. For some assays here: Where a sequence is shown, tags or fusion partners need not be part of it.

B1: fusion protein of recombinant soluble mouse NKG2D and human Fc (smNKG2D-Fc, R&D Systems) (Fc fusion, UniProt O54709 94-232, looked up, not shown: a dimerising Fc or GST)
chain: FQPVLCNKEVPVSSREGYCGPCPNNWICHRNNCYQFFNEEKTWNQSQASCLSQNSSLLKIYSKEEQDFLKLVKSYHWMGLVQIPANGSWQWEDGSSLSYNQLTLVEIPKGSCAVYGSSFKAYTEDCANLNTYICMKRAV
Regarding B1, the binding entry in experiment [1] and in experiment [2] was “binds” throughout.

B2: soluble MICB resulting from shedding by TC2-MICB tumor cells (ssMICB) (ligand, human, UniProt Q29980 23-299, looked up)
chain: AEPHSLRYNLMVLSQDGSVQSGFLAEGHLDGQPFLRYDRQKRRAKPQGQWAENVLGAKTWDTETEDLTENGQDLRRTLTHIKDQKGGLHSLQEIRVCEIHEDSSTRGSRHFYYDGELFLSQNLETQESTVPQSSRAQTLAMNVTNFWKEDAMKTKTHYRAMQADCLQKLQRYLKSGVAIRRTVPPMVNVTCSEVSEGNITVTCRASSFYPRNITLTWRQDGVSLSHNTQQWGDVLPDGNGTYQTWVATRIRQGEEQRFTCYMEHSGNHGTHPVPSGK
B2: the binding result in experiment [3] and in experiment [4] was “binds” each time.

B3: wild-type human MICA*01 (wtMICA) expressed on TRAMP-C2 or C1R cells (ligand)
chain: EPHSLRYNLTVLSWDGSVQSGFLTEVHLDGQPFLRCDRQKCRAKPQGQWAEDVLGNKTWDRETRDLTGNGKDLRMTLAHIKDQKEGLHSLQEIRVCEIHEDNSTRSSQHFYYDGELFLSQNLETKEWTMPQSSRAQTLAMNVRNFLKEDAMKTKTHYHAMHADCLQELRRYLKSGVVLRRTVPPMVNVTRSEASEGNITVTCRASGFYPWNITLSWRQDGVSLSHDTQQWGDVLPDGNGTYQTWVATRICQGEEQRFTCYMEHSGNHSTHPVPSGKVLVLQSHWQTFHVSAVAAAAIFVIIIFYVRCCKKKTSAAEGPELVSLQVLDQHPVGTSDHRDATQLGFQPLMSDLGSTGSTEGA
Turning to B3, the binding result in experiment [5] is on record as “binds”.
